Entries after “also recorded” stand apart in the source; their conditions may differ. Not every detail of the peptide structures is certain; ends, links or a residue may be inferred. Some compounds share one wording; it may come from a single statement. Where no end group is shown, it is not given here.
Columns and labels:
rat soleus muscle [1] = assay: Rate of glycolysis (lactate synthesis) in isolated rat soleus muscle; type: cell-based; settings: amylin treated vs insulin-treated control groups
rat soleus muscle [2] = assay: Glycogen synthesis (14C-glucose incorporation into glycogen) in isolated rat soleus muscle strips; settings: for GLYCOGEN SYNTHESIS Mean Value, Average: average of Fractions 2 and 3, insulin 10 μU/ml

## CC[C@H](C)[C@H](NC(=O)[C@H](C)NC(=O)CNC(=O)[C@H](Cc1ccccc1)NC(=O)[C@H](CC(N)=O)NC(=O)[C@H](CC(N)=O)NC(=O)[C@H](CO)NC(=O)[C@H](CO)NC(=O)[C@H](Cc1c[nH]cn1)NC(=O)[C@@H](NC(=O)[C@H](CC(C)C)NC(=O)[C@H](Cc1ccccc1)NC(=O)[C@H](CC(N)=O)NC(=O)[C@H](C)NC(=O)[C@H](CC(C)C)NC(=O)[C@H](CCCNC(=N)N)NC(=O)[C@H](CCC(N)=O)NC(=O)[C@@H](NC(=O)[C@H](C)NC(=O)[C@@H]1CSSC[C@H](NC(=O)[C@@H](N)CCCCN)C(=O)N[C@@H](CC(N)=O)C(=O)N[C@@H]([C@@H](C)O)C(=O)N[C@@H](C)C(=O)N[C@@H]([C@@H](C)O)C(=O)N1)[C@@H](C)O)C(C)C)C(=O)N[C@@H](CC(C)C)C(=O)N[C@@H](CO)C(=O)N[C@@H](CO)C(=O)N[C@H](C(=O)N[C@@H](CC(N)=O)C(=O)N[C@H](C(=O)NCC(=O)N[C@@H](CO)C(=O)N[C@@H](CC(N)=O)C(=O)N[C@H](C(=O)N[C@@H](Cc1ccc(O)cc1)C(N)=O)[C@@H](C)O)C(C)C)[C@@H](C)O [native amylin]
Rat soleus muscle [1]
  rates of glycolysis, as indicated by the rates of lactate synthesis: not significantly different
Rat soleus muscle [2]; amylin 0.2 nmol/L, no antagonist, insulin 100 μU/ml, Experiment #1
  Rltv Insulin Resist: 29%
Rat soleus muscle [2]; amylin 0.4 nmol/L
  GLYCOGEN SYNTHESIS Mean Value, Average: 1.12 µmol/h/g
Rat soleus muscle [2]; amylin 2.0 nmol/L
  GLYCOGEN SYNTHESIS Mean Value, Average: 0.72 µmol/h/g

## ATQRLANFLVHSSNNFGAILSSTNVGSNTY [subpeptide [5], Amylin 8-37]
Rat soleus muscle [2]; isolated rat skeletal muscle in vitro, data not shown
  activity in reducing the incorporation of radioactive glucose into glycogen: significant activity was present; also recorded: reduced the incorporation of radioactive glucose into glycogen

From patent US5266561A, “Treatment of type 2 diabetes mellitus” (Amylin Pharmaceuticals, Inc., priority 1991, dated 1993)
